# Values from PubChem BioAssay AID1259254 (NCATS, 2017)
# Assay: 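Finding genes that stop cells copying their DNA twice in one cycle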 (primary screen)
# Cells: human HCT116 colorectal cancer cells
# Reagent: single siRNA against human genes
# Duration: 3 days
# Read-out: 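Nuclei stained with Hoechst and imaged; cell-cycle phase assigned by DNA content; G2 share scaled per plate, non-targeting siRNA 0%, GMNN siRNA 100%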
# Scale: G2 robust z-score and G2 cells, % of GMNN control: higher = more G2 cells, more excess DNA replication
# Rule for the call: 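An siRNA counts as active if its G2 robust z-score lies at least 5 MADs above the screen median; here such calls match roughly 38% of GMNN control or more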
# The whole screen tested about 59,000 reagents; below is an unselected part. About 1,550 of all reagents (2.6%) were called active. 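G2 share is only a proxy for re-replication; each gene was hit by three separate siRNAs, and active genes were retested.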 Unmarked entries are inactive. The numbers tell different reagents against one gene apart. Not all columns of the deposit are shown. Not given: the amount of reagent.
Gene,siRNA no.,G2 robust z-score,"G2 cells, % of GMNN control"
IGFBP7-AS1,1,-0.505,-0.588
IGFBP7-AS1,2,-0.748,-2.3
IGFBP7-AS1,3,0.454,6.16
ADAM17,1,0.305,5.12
ADAM17,2,2.27,19
ADAM17,3,1.94,16.6
TCF20,1,-0.0941,2.31
TCF20,2,0.345,5.4
TCF20,3,1.14,11
DTX3L,1,-0.343,0.553
DTX3L,2,-0.367,0.388
DTX3L,3,1.17,11.2
TSPAN14,1,0.25,4.72
TSPAN14,2,-0.793,-2.61
TSPAN14,3,-1.22,-5.64
NAA15,1,-1.22,-5.59
NAA15,2,0.227,4.56
NAA15,3,2.13,17.9
SMS,1,-0.223,1.4
SMS,2,-0.605,-1.29
SMS,3,-0.637,-1.52
ZNF835,1,-0.934,-3.61
ZNF835,2,-0.499,-0.545
ZNF835,3,0.828,8.79
NREP,1,0.89,9.23
NREP,2,0.952,9.67
NREP,3,-0.706,-2
SPINK4,1,-0.618,-1.38
SPINK4,2,0.13,3.88
SPINK4,3,-0.331,0.637
DNAJC28,1,0.286,4.98
DNAJC28,2,0.139,3.95
DNAJC28,3,-0.969,-3.85
RDH11,1,2.16,18.2
RDH11,2,-0.56,-0.97
RDH11,3,-0.644,-1.56
KRT222,1,-0.859,-3.08
KRT222,2,0.122,3.82
KRT222,3,-0.417,0.0318
RPS16P1,1,3.5,27.6
RPS16P1,2,1.69,14.9
RPS16P1,3,1.55,13.9
ATN1,1,-1.27,-5.97
ATN1,2,0.898,9.28
ATN1,3,2.13,18
RBBP9,1,0.25,4.73
RBBP9,2,1.03,10.2
RBBP9,3,-0.722,-2.11
ZNF385A,1,0.0725,3.48
ZNF385A,2,0.886,9.2
ZNF385A,3,0.0122,3.05
L3MBTL2,1,0.691,7.83
L3MBTL2,2,-0.67,-1.75
L3MBTL2,3,0.491,6.42
ULBP3,1,0.175,4.2
ULBP3,2,-0.109,2.2
ULBP3,3,-0.356,0.466
RPS2P50,1,-0.934,-3.6
RPS2P50,2,2.44,20.1
RPS2P50,3,0.149,4.01
RNF38,1,-0.424,-0.0176
RNF38,2,0.514,6.59
RNF38,3,-0.298,0.868
ALKAL1,1,0.828,8.79
ALKAL1,2,0.76,8.31
ALKAL1,3,-0.00856,2.91
DUSP15,1,-0.254,1.18
DUSP15,2,0.34,5.36
DUSP15,3,2.79,22.6
CCNT2,1,-1.16,-5.18
CCNT2,2,3.68,28.9
CCNT2,3,2.15,18.1
SLC39A5,1,0.0436,3.27
SLC39A5,2,0.42,5.92
SLC39A5,3,2.55,20.9
CUTC,1,0.856,8.99
CUTC,2,7.55 (active),56.1
CUTC,3,0.636,7.44
XIRP2,1,1.45,13.1
XIRP2,2,-0.903,-3.39
XIRP2,3,0.479,6.34
CADM2,1,-1.03,-4.26
CADM2,2,1.15,11.1
CADM2,3,6.96 (active),51.9
HNRNPUL2,1,1.95,16.7
HNRNPUL2,2,2.63,21.5
HNRNPUL2,3,0.71,7.97

Entries above whose gene name begins with D or d:
Gene,siRNA no.,G2 robust z-score,"G2 cells, % of GMNN control"
DTX3L,1,-0.343,0.553
DTX3L,2,-0.367,0.388
DTX3L,3,1.17,11.2
DNAJC28,1,0.286,4.98
DNAJC28,2,0.139,3.95
DNAJC28,3,-0.969,-3.85
DUSP15,1,-0.254,1.18
DUSP15,2,0.34,5.36
DUSP15,3,2.79,22.6
